Assays:
Aspergillus niger lipase [1] = assay: Far-UV circular dichroism of lipase; conditions: 24 hours at 298.15 K, pH 7.4, native -9.34
Aspergillus niger lipase [2] = assay: Fluorescence quenching of lipase (Stern-Volmer and double-logarithmic plots); assay type: binding; conditions: pH 7.4
Protocol: Lipase and HSA were dialyzed against KCl- buffer (pH 7) for 24 hrs. Stock solution of lipase was prepared in 10 mM phosphate buffer at pH 7.4 to obtain a particular concentration. […] These samples were incubated at 298.0 K for about 24 hrs.
Fluorescence spectra were recorded on Hitachi F-4010 spectrofluorometer equipped with circulating water bath to maintain the temperature of the cell. The quartz cell of path length 1.0 cm and band slit of 5.0 nm were used for all experiments. The excitation wavelength was 280 nm for lipase and HSA. Emission spectra were recorded from 300–450 nm for lipase and HSA protein.
Herein, the fluorescence intensities were corrected for absorption of the exciting light and reabsorption of the emitted light to decrease the inner filter effect according to the following equation [10] (Chi & Liu, 2011): Fcorr=Fobs10^Aex+Aem/2, Where Fcorr and Fobs are corrected and experimentally measured fluorescence intensities, respectively. […] The fluorescence intensity utilized in this paper was the corrected intensity.
Emission fluorescence spectra were measured in the 300–450 nm interval, at a fixed excitation wavelength of 280 nm. Occurrence of an emission maximum at 344 nm in the fluorescence spectrum of lipase can be attributed to the presence of tryptophan residue of lipase. […]

SMILES: Cc1ccc(C(C)C)cc1O [carvacrol]
- MRE x 10^3 at 222nm (complex_400 μM) (Aspergillus niger lipase [1]): -7.71
- n (stoichiometry of association process / number of binding sites) (Aspergillus niger lipase [2]): 2.04
